In article PMC6625990, “Structural underpinnings of Ric8A function as a G-protein α-subunit chaperone and guanine-nucleotide exchange factor” (Nature Communications, 2019):
These are yes or no findings as the source states them, for the method shown. Binding can be weak; no strength is given.

Chains of the proteins cited; added tags and fusions are not shown. Lines headed by an entry give the natural chain unless they say otherwise; changes in a name come on top. Residues count along the entry.
UniProt P04695, residues 327-350: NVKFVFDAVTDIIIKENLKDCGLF
UniProt Q5E9J8: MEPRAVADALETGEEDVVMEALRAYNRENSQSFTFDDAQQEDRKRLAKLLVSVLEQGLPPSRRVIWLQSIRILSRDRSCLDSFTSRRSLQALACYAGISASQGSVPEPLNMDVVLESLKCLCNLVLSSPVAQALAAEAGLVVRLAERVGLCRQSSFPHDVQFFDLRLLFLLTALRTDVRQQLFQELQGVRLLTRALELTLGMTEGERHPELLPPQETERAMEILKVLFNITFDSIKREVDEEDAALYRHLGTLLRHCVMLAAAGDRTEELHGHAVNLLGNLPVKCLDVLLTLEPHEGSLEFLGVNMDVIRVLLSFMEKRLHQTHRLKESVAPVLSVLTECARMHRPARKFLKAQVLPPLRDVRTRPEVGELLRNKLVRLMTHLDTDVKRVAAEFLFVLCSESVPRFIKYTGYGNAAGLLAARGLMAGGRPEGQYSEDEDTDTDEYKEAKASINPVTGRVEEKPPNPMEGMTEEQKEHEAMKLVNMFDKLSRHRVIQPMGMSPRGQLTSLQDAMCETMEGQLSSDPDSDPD

Target: MBP-Gαt327–350 (UniProt P04695)
Assay: crystal structure; Ric8A1–492/MBP-Gαt327–350 complex, 0.1 M MIB buffer, 25% PEG3350, pH 8.0, 18 °C; both purified

binding: binds
Substance: bovine Ric8A1–492 with an N-terminal His6-tag, as crystallised (from UniProt Q5E9J8) (domain or fragment)
